Measurements taken from patent publication US7550425B2, “Diuretic peptide conjugates” (Zealand Pharma A/S, priority 2000, dated 2009).
At least one compound was matched to its structure with a doubt left.

Tested on: mouse vas deferens
Assay: Mouse vas deferens assay: inhibition of electrically-induced contraction
Conditions: cumulative addition; data not shown
Text: The compounds of the present invention are pharmacologically active, e.g. as nociceptin agonists or partial agonists, and a useful method of showing activity is described by Hughes J., Kosterlitz H. W., Leslie F. M.: Effect of morphine on adrenergic transmission in the mouse vas deferens. Assessment of agonist and antagonist potencies of narcotic analgesics^[4]. The isolated electrically stimulated mouse vas deferens preparation has been widely used to evaluate the functional pharmacological actions of opioid agonists and antagonists in vitro^[5].
The vas deferens from male NMRI albino mice weighing 30-40 g were placed in a SCHULER organ bath Type 809, Hugo Sachs Elektronik, Germany, and perfused with a 37° C., modified Krebs solution (NaCl 6,9 g/L, KCl 0.35 g/L, KH2PO4 0.16 g/L, NaHCO3 2.1 g/L, Glucose H2O 2.0 g/L, CaCl2 2.52 mL/L). The solution was gassed with carbogen (95% O2 and 5% CO2) throughout the experiment. The tissue was electrically stimulated through two silver electrodes directly in the organ bath using a HSE Stimulator I Type 215. Stimulation of the tissue was performed by applying a supramaximal voltage (15 Volts) in trains of 10 square pulses every 60 s, each of 1 ms duration with a frequency of […]. Concentration-response curves were performed by adding test substances that relax mouse vas deferens smooth muscles cumulatively to the organ baths. […]

CC(C)C[C@H](NC(=O)[C@H](CCCCN)NC(=O)[C@H](CCCN=C(N)N)NC(=O)[C@H](C)NC(=O)[C@H](CO)NC(=O)[C@H](CCCCN)NC(=O)[C@H](CCCN=C(N)N)NC(=O)[C@H](C)NC(=O)CNC(=O)[C@@H](NC(=O)[C@H](Cc1ccccc1)NC(=O)CNC(=O)CNC(=O)[C@@H](N)Cc1ccccc1)[C@@H](C)O)C(=O)N[C@@H](C)C(=O)N[C@@H](CC(N)=O)C(=O)N[C@@H](CCC(N)=O)C(=O)O [nociceptin, reference compound]
potency order for inhibition of electrically-induced contraction of the mouse vas deferens: nociceptin>Compound 1=Compound 2>>Ac-RYYRWK-NH2
